Experimental data: patent US20120172578A1 (VLAAMS INTERUNIVERSITAIR INSTITUUT VOOR BIOTECHNOLOGIE, published 2012)
No constants are given. Whether binding was seen depends on the method and setting. Binding can be weak; no strength is given.

What was measured:
[1] = target: Poly A Binding Protein Type 2; assay: column 'Antigen recognized by antibody'
[2] = target: Poly A Binding Protein Type 2; assay: phage display panning; evaluated in ELISA
[3] = target: Variant Surface Glycoprotein trypanosome (trypanosome); assay: column 'Antigen recognized by antibody'
[4] = target: Variant Surface Glycoprotein trypanosome (trypanosome); assay: phage display panning; evaluated in ELISA
β-lactamase [5] = assay: column 'Antigen recognized by antibody'
β-lactamase [6] = assay: phage display panning; evaluated in ELISA

| Binder | binding [1] | binding [2] | further results |
| --- | --- | --- | --- |
| F6 PABP2 (VHH) VHH: QVQLQESGGGLVQPGGSLRLSCATSGFIFSDYWMYWVRQAPGKGLEWVSSITPGASTTLYADSVKGRFTISRDNAKNTLYLQMNSLKSEDTAVYYCAKGSKIGPRGQGTQVTVSS | binds | binds |  |
| cAbAn04 (VHH) VHH: QVQLVESGGGSVEAGGSLRLSCVVSGYSVSIGCMAWFRQAPGSGREGVAGISRGGSMTDYTASVKGRFTISRDNDQRTVTLQMNSLKPEDTAVYYCARDGPEIATMIGGSRGRGTQVTVSS |  |  | binding [3]: binds; binding [4]: binds |
| C4 PABP2 (VHH) VHH: QVQLQESGGGLVQPGGSLRLSCAASGFTFSRSWMYWVRQAPGKGLEWVSSITPGGSEPFYVDSVKGRFTISRDNAKNTLYLQMNSLKSEDTAVYFCAKDSKNGPRGQGTQVTVSS | binds | binds |  |
| E3 PABP2 (VHH) VHH: QVQLQESGGGLVQPGGSLRLSCAASGFTFSRSWMYWVRQAPGKGLEWVSSITPGGTEAFYADSVKGRFTISRDNAKNTLYLQMNSLKSEDTALYFCAKDSKNGPRGQGTQVTVSS | binds | binds |  |
| cAbBLA01 (VHH) VHH: QLQLVESGGGSVQSGGSLRLSCKVSGYIGSTNCMGWFRQAPGKEREGVASLFTGSGNTYYGDSVKGRFTISEDNAKNTVSLQMNSLKPEDTAMYYCASSSNVGSDESCGRKNTRQFVYTYQGQGTQVTVSS |  |  | binding (β-lactamase [5]): binds; binding (β-lactamase [6]): binds |
